## Library screen at single concentrations

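Growth of Mycobacterium tuberculosis over 4 days (cholesterol / DPPC medium with tyloxapol); the read-out is not stated. Concentration: 500 µM. Direction is inferred from retests: higher values go with more growth inhibition. About 18,000 compounds were tested under these conditions; 5% (about 900) showed 50% or more at least once.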

Values are the deposited “Percent Effect”, in %. The controls that fix the scale are not given in the record; negative values are as filed. This is an unselected part of the compounds tested.

- COC(=O)c1sc(N)nc1C : -15.65%
- CCCNC1CCS(=O)(=O)C1 (stereo not given) : 6.76%
- O=C(NCC1CCCO1)N(CC(F)F)C1CC1 (stereo not given) : -14.4%
- CN1CCC(C(=O)NCCc2cccc(Cl)c2)CC1=O (stereo not given) : -0.3935%
- NCc1nc2c(s1)CCCC2 : 13.72%
- CCC(C)N(CC(=O)OC)Cc1nccn1C (stereo not given) : -10.01%
- N#CCCN1CCC(NS(=O)(=O)c2ccccc2)CC1 : -8.856%
- CNC(=O)CSc1nc(C)nc(C)c1C#N : -9.383%
- N#CC1COCCN1C(=O)c1ccc(SC(F)F)cc1 (stereo not given) : 23.3%
- NS(=O)(=O)NCc1ccc2c(c1)OCO2 : 21.21%
- O=C(NCc1ccoc1)C12CCCN1CCC2 : 7.634%
- O=C(NC(C1CC1)C1CC1)N1CCC2(CC1)OCCO2 : -13.11%
- N#CC1=C(N)n2ncnc2NC1c1ccccc1 (stereo not given) : -5.184%
- COC(=O)NCCc1ccc(S(N)(=O)=O)s1 : 1.849%
- CCc1ccc(CN2CCN(C(=O)C(C)N)CC2)s1 (stereo not given) : 4.359%
- O=C1N(CC2CCC2)CCCC1(O)CN1CCOCC1 (stereo not given) : -10.16%
- CC(Oc1cccc(C#N)c1)C(=O)N1CCSCC1 (stereo not given) : 31.19%
- COCCNC(=O)c1ccc(N2CCCC(O)C2)nc1 (stereo not given) : -1.043%
- Cn1cnnc1C1CCN(CC2CCCOC2)CC1 (stereo not given) : -2.225%
- O=C(CCNCCO)c1ccccc1 : 99.82%
- O=C(NC1CCC(O)CC1)N1CCN(CC2CC2)CC1 (stereo not given) : 3.287%
- CCc1cc(N2CCNCC2)ncn1 : 11.18%
- CC1(CCNC(=O)c2ccon2)OCCO1 : -11.66%
- COC1CCN(S(=O)(=O)N2C[C@H](C3CC3)[C@@H](N)C2)CC1 : -4.139%
- O=C(c1cn2ccsc2n1)N1CC=CC1CO (stereo not given) : -5.24%
- CC(C)Sc1nc(-c2ccccn2)no1 : 72.26%
- O=C(NCCOc1ncccc1Cl)c1cc(Cl)c[nH]1 : 88.47%
- OC[C@@H]1CNC[C@H]1c1nc(-c2ccncc2)no1 : -9.976%
- CC(=O)N1CCC(OCCOc2ccccc2)CC1 : 27.67%
- NC[C@@H]1OC[C@@H]2COCC[C@@H]21 : -19.91%
- CN1N=C(C(=O)NC2(C)CCS(=O)(=O)C2)CCC1=O (stereo not given) : -18.3%
- CNCc1nnc(C2CC2)n1C : -4.757%
- CC(=O)c1cccc(OCC(=O)NC2CCCC2)c1 : 51.92%
- CSCCN(C)Cc1cn(-c2ccccc2)nn1 : 29.29%
- NCc1ccc(OCC2CC2)nc1 : 30.4%
- CC(C)(C)c1n[nH]cc1CNCC(=O)N1CCCC1 : 10.94%
- CN(C)C(=O)Cn1cnc2ccsc2c1=O : 19.74%
- Cc1cc2cc(C(=O)NCCOC(N)=O)oc2cc1C : -1.072%
- CCNC(=O)[C@@H](NC(=O)c1ccccc1)C(C)C : -9.625%
- COc1cc2c(cc1OC)CN(C(=O)CCN)CC2 : 8.66%
- O=C(NCCCn1cccn1)c1ccc2c(c1)OCO2 : 34.09%
- Nc1nnc(CCNC(=O)C2CCc3ccccc32)o1 (stereo not given) : -3.4%
- Cc1cc(CN)c(C)n1C : 14.52%
- CC(C)n1cc(S(=O)(=O)N2CCC3(CCOC3)C2)cn1 (stereo not given) : 9.031%
- Cc1ccsc1C(=O)N1CCOc2ccncc21 : 1.715%
- CSCC(=O)Nc1ccc(C(=O)NCC(F)(F)F)cc1 : 5.297%
- C[C@@H](CO)NC(=O)C1(C)CCCc2ccccc21 (stereo not given in full) : 13.44%
- COCCCN(C)S(=O)(=O)c1ccc(Br)cn1 : 56.18%
- O=C(NC1CCS(=O)(=O)C1)c1cc2cccc(Cl)c2s1 (stereo not given) : -5.64%
- Nc1nc(NCCc2cn[nH]c2)cc(C2CC(N)C2)n1 (stereo not given) : -9.213%
- CCNc1ncc(C(=O)N2CCCO2)s1 : 2.53%
- O=C(NCCc1cccs1)c1cc[nH]n1 : 8.228%
- O=C(c1ccccc1-n1cccn1)N1CCSCC1 : 1.257%
- CC(NC(=O)c1ccn(C2CCCC2)n1)c1ncon1 (stereo not given) : 14.23%
- O=C1CN(C(=O)c2ccn(-c3ccccc3)n2)CCN1 : -9.323%

Some entries from above, unchanged:

SMILES,effect
CN1N=C(C(=O)NC2(C)CCS(=O)(=O)C2)CCC1=O (stereo not given),-18.3%
O=C1CN(C(=O)c2ccn(-c3ccccc3)n2)CCN1,-9.323%
CC(C)(C)c1n[nH]cc1CNCC(=O)N1CCCC1,10.94%
CN1CCC(C(=O)NCCc2cccc(Cl)c2)CC1=O (stereo not given),-0.3935%

Data taken from ChEMBL document CHEMBL3988442, “University of Dundee, Small-Polar-MMV Screening Library” (2021).